# Library screen at single concentrations

Protein sequences, listed by entry. Tags and fused reporters are not part of them.
UniProt I6X8D2, whole entry: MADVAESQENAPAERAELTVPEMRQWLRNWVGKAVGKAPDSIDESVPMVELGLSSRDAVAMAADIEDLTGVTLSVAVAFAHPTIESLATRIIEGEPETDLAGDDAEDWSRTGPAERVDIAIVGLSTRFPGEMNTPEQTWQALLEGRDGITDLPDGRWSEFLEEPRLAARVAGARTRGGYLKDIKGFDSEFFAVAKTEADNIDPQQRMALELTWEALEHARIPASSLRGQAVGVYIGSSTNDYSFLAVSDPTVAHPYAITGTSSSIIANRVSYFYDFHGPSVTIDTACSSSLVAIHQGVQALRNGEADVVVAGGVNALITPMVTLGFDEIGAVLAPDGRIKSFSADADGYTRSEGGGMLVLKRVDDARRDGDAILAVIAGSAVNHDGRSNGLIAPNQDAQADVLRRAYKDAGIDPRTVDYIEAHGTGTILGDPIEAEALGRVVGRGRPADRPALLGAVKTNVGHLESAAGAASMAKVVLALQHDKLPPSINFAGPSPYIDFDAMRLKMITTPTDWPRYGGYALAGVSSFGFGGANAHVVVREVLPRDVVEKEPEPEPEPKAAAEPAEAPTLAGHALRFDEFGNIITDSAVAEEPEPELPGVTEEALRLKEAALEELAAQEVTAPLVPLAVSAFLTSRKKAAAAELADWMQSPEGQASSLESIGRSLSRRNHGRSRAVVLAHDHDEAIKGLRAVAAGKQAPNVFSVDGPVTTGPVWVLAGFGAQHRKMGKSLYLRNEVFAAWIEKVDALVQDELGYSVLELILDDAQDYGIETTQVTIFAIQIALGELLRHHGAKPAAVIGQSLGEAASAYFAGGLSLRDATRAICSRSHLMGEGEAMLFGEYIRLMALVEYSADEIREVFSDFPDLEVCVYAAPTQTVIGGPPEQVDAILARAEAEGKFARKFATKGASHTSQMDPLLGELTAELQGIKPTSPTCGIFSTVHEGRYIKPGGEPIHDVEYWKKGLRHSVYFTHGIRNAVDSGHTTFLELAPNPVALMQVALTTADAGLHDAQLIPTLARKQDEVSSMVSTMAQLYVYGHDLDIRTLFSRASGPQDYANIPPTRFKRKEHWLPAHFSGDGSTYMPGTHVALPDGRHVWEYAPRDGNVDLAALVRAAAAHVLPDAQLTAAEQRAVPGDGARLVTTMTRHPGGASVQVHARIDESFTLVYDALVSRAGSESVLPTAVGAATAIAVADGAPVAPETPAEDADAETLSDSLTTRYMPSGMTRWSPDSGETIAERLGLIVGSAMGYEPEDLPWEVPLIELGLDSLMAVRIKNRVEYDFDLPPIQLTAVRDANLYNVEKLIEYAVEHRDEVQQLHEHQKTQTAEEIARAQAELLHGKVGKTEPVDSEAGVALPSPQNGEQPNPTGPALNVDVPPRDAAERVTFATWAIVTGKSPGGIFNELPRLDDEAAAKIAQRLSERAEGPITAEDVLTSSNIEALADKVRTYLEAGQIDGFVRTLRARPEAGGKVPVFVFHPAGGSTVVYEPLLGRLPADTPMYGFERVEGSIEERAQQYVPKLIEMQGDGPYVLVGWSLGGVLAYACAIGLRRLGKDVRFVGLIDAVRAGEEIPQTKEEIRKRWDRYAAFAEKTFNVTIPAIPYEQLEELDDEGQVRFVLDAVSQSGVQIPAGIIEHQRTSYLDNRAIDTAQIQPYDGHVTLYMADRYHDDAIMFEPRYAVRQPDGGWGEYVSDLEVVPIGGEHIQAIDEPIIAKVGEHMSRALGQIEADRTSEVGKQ

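Enzyme assay of the thioesterase domain of polyketide synthase 13; the read-out is not stated. Target: Polyketide synthase Pks13, Mycobacterium tuberculosis (UniProt I6X8D2). Tested at 30 µM. The record gives no direction; the compounds picked for IC50 retests had high values, so higher reads as stronger inhibition. About 67,000 compounds were tested under these conditions; 0.46% (about 300) showed 50% or more at least once.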

Values are the deposited “Percent Effect”, in %.
How 0% and 100% were set is not recorded. Most values in the screen are low, and negative values occur.
This is an unselected part of the compounds tested.

compound,percent effect
CCn1cc(NS(=O)(=O)c2ccc(F)cc2)c(C(=O)NCC(C)C)n1,2.239%
CC(C)c1csc(C2CCCN(C(=O)c3ncccn3)C2)n1 (stereo unspecified),-16.24%
CC(C)c1cc(NCC2(CO)CCC2)ncn1,-17.67%
OC1(CN2CCCCC2)CCN(c2nccc(C(F)(F)F)n2)C1 (stereo unspecified),-25.09%
CN1CC(C(=O)NCc2cccnc2OCc2ccccc2)CC1=O (stereo unspecified),12%
Cc1nc(CCCNC(=O)c2c(F)cccc2Br)n[nH]1,-7.237%
COCC1c2nnn(CC3CC3)c2CCN1C(=O)C1CCOCC1 (stereo unspecified),-18.98%
Cc1noc([C@@H]2CCO[C@@H]3CCN(Cc4nccs4)C[C@@H]32)n1,-4.638%
COCC(C)NC(=O)CN1CCCC1 (stereo unspecified),-2.818%
COc1ccc(CN(C)C2CSCCSC2)c2cccnc12,-34.57%
CC(C)(C(=O)NCc1ccccc1F)n1cc(Br)cn1,3.916%
Cc1ccc(C(NC(=O)CCNC(=O)c2ccoc2)C(F)(F)F)cc1 (stereo unspecified),-9.004%
O=C(c1ccsc1)N1CC[C@H]2C[C@@H](c3nnc(C4CC4)o3)O[C@@H]2C1,-5.019%
Cn1ccc(C(=O)NCCOc2ccc(C(C)(C)C)cc2)cc1=O,-8.382%
CC(C)N1CCC(CC(=O)N(C)CC(=O)c2ccc(O)cc2)CC1,-0.9906%
CCN(C)C(=O)C1(c2ccc(F)cc2F)CCC1,-16.7%
COc1ccc(CN(C)C(=O)NC(C)c2nncn2C)cc1F (stereo unspecified),-29.29%
CC(CCc1ccccc1)CC(=O)NC1CCN(CC(N)=O)CC1 (stereo unspecified),-22.74%
CC(Cn1ccnc1)NC(=O)N(C)Cc1ccco1 (stereo unspecified),-15.87%
Cc1ncc(CC(=O)N2CCCC(COc3ccccc3F)C2)c(=O)[nH]1 (stereo unspecified),-30.85%
NC(=O)CCC1CCCN(c2ncnc3c2Cc2ccccc2OC3)C1 (stereo unspecified),-1.222%
COCC(C)(CCO)NC(=O)Nc1cccc(Br)c1C (stereo unspecified),-6.602%
CCn1nc(CC(C)C)cc1C(=O)NCCCN1CCOCC1,1.05%
O=C(N1CCOCC1)N1CCC2(CCNC2)C1 (stereo unspecified),-21.55%
CCOCC(=O)N1CCC(C)(c2nccs2)CC1,2.125%
Cn1cc(C(=O)N2CC[C@@H]3[C@@H]2CCN3Cc2ccncc2)cn1,1.835%
Cc1nccn1-c1cc(CNC(=O)CC2CCCO2)ccn1 (stereo unspecified),-12.62%
Cc1nc(CN(C)C2CCN(CCC(=O)N3CCOCC3)C2)no1 (stereo unspecified),-38.54%
Cc1cnc(-c2nc(C3CCCN(Cc4cccs4)C3)no2)cn1 (stereo unspecified),-0.2355%
Cc1cnn(CCNCC(O)COc2cccc(C(F)(F)F)c2)c1 (stereo unspecified),-2.478%
Cc1ccc(-c2nnc(CN3CCc4nn(C)c(=O)cc4C3)o2)cc1,5.374%
CCn1nc(C)c2c1cnn2CC(=O)N1CCN(C)CC1,-18.38%
COc1ccccc1NC(=O)NC(C)c1nc[nH]n1 (stereo unspecified),-16.01%
Cc1cnn(CC2CCCN2C(=O)c2cccc3[nH]ncc23)c1 (stereo unspecified),-12.49%
COCC(=O)N1CCN(C)C(=O)C(Cc2ccc(-c3cccs3)cc2)C1 (stereo unspecified),-0.1664%
C[C@H](NC(=O)N1CCN(c2ccc(Cl)cc2)CC1)C(=O)N1CCSCC1,14.09%
Cc1cc(CNc2ccccc2Cl)no1,-20.33%
CCc1nc(C#N)c(N2CCC(c3nc(-c4ccccc4)no3)CC2)o1,19.33%
CC(C)Cc1nc(CN2CCOC(Cn3cncn3)C2)no1 (stereo unspecified),-2.453%
Cc1ccc(CN2C[C@@H]3COC[C@H](C(=O)N4CCCCO4)[C@@H]3C2)o1,-28.89%
Cc1nc(CN2C(=O)CC[C@@H]3[C@H]2CCN3C2CCOC2)cs1 (stereo partly specified),-4.834%
CC1CCc2nc(O)c(C(=O)NCCCN3CCN(C)CC3)cc2C1 (stereo unspecified),82.59%
O=S1(=O)c2ccccc2OCC2(CCN(CCO)CC2)CN1CC1CC1,5.491%
COCC1CC2(CCN(C(=O)c3ccc(F)cc3C)CC2)CO1 (stereo unspecified),-15.14%
CCn1ncc(CN(C)C(=O)c2ccn(C)n2)c1C,0.7178%
O=C(NCc1cccs1)c1nc2c(o1)CN(C(=O)c1cccnc1)C2,16%
CCn1ccnc1CN1CCCC1C(=O)Nc1nccs1 (stereo unspecified),-10.08%
Cn1cccc1C(=O)N1CCC2(CC1)c1nc[nH]c1CCN2S(C)(=O)=O,-20.75%
COc1ncccc1CNC(=O)c1ccco1,-24.51%
COc1cc(N2CCCC(c3nccn3Cc3cscn3)C2)nc(N)n1 (stereo unspecified),-23.78%
Cc1cnc(C(C)(C)NC(=O)NCc2ccon2)s1,5.694%
CC1=C(c2ccc(Cl)cc2)S(=O)(=O)N=C1N1CCc2ccccc21,-13.02%
CCSc1cc(C(=O)NCCC(=O)N(C)C)ccn1,-6.952%
CSc1cccc(CN(C)C(=O)Nc2nc(C)n(C)n2)c1,-8.737%
COc1cccc(S(=O)(=O)CCN2CCN(CC(F)F)CC2)c1,-13.97%
O=C(NCc1ccco1)[C@@]12CCO[C@@H]1CCN(CC1CCOCC1)C2,-8.765%
COCc1nc2cc(NCc3ncc[nH]3)ccc2o1,-13.66%
Cn1ccnc1CN1CCC2(CC1)CN(c1ccccn1)CCO2,12.4%
O=C(Cn1nc(N2CCOCC2)ccc1=O)Nc1nccs1,-15.01%
COc1c(C(=O)NCC(C)C)nnn1Cc1ccccc1,-11.2%
COc1c(C)cnc(CN2CCOC(Cn3nc(C)nc3C)C2)c1C (stereo unspecified),-30.48%
c1cc2occc2c(N2CCCC(c3nncn3C3CC3)C2)n1 (stereo unspecified),-17.24%
CCOC(=O)c1cccc(N2CCCC3(CCC(=O)N(C4CC4)C3)C2)n1 (stereo unspecified),-0.3163%
CN(C)c1cccc(C(=O)Nc2cnn(Cc3ccncc3)c2)c1,-32.56%
N#Cc1ccc(OC2CCN(C(=O)c3ccc(Br)o3)CC2)nc1,-1.046%
Cc1ccc(CC(=O)N2CCCC(c3nc(C)cs3)C2)cn1 (stereo unspecified),-5.951%
COc1ccccc1OC1(C(=O)O)CCN(c2ncccc2F)CC1,12.77%
COCCN1C(=O)[C@H]2CC[C@@H]1CN(Cc1nnc(C3CC3)o1)C2,-3.583%
Cc1cc2nc(C(C)C)cc(N3CCN(S(N)(=O)=O)CC3)n2n1,5.641%
COCC(C)NC(=O)c1sccc1-n1cnnn1 (stereo unspecified),-21.43%
O=C(CC1=CCCCC1)NCCc1csc(N2CCCC2)n1,-18.56%
Cc1ccsc1CN(c1nc(CCN)nc2ccccc12)C1CC1,-31.82%
COc1ccc(OCCN(C)Cc2nc3c(cnn3C)c(=O)[nH]2)cc1,-12.84%
CS(=O)(=O)NCc1cnc2n1CCN(Cc1cccnc1)CC2,-3.525%
CN(Cc1nnc(C2CC2)n1C)S(=O)(=O)c1ccccc1C#N,1.813%
CCN(CC)c1ccc(NS(=O)(=O)c2cnn(C)c2)cn1,1.856%
Fc1cnc(N2CC[C@@H]3O[C@@H](COCc4ccccn4)CC[C@@H]32)nc1,-10.93%
c1cnn(CC2CCCN2Cc2nc(-c3ccoc3)no2)c1 (stereo unspecified),-11.17%
O=C(Nc1cccnc1)N1CCC(n2ccc(C(F)(F)F)n2)CC1,-17.11%
CC(c1ccc(-n2cncn2)cc1)N(C)Cc1ccccn1 (stereo unspecified),-18.24%
CC(C)OCCCNC(=O)CS(=O)(=O)Cc1cccc(Cl)c1,-4.102%
Cc1ccc(N2CCN(C(=O)CCc3n[nH]c(C)c3C)CC2=O)cc1,-6.414%
CC(C)(C)OC(=O)N1CCCN1C(=O)c1cccc2cc[nH]c12,-6.044%
CCC(CO)NC(=O)c1cc(COc2ccc(OC)cc2Cl)[nH]n1 (stereo unspecified),-26.78%

Measurements from “University of Dundee, Small-Polar-MMV Screening Library” (2021), ChEMBL document CHEMBL3988442.